According to publication PMC6997364:
No constants are given. Whether binding was seen depends on the method and setting. In cells and extracts the contact can be indirect. Some binding calls cover weakened binding; strength is not graded here. For some assays here: Where a sequence is shown, tags or fusion partners need not be part of it. Blank lines part the entries; values can stand above or below the molecule they belong to.

Protein sequences, listed by entry. Tags and fused reporters are not part of them. Residues count along the entry.
UniProt P15703, residues 24-313: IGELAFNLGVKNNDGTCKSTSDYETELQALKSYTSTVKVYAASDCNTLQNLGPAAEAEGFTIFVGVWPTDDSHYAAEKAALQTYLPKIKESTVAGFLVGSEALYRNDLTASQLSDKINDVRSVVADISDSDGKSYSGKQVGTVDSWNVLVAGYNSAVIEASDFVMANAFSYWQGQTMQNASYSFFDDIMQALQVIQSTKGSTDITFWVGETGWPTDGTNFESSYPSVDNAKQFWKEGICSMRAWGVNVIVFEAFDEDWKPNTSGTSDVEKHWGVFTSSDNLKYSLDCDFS

Legend:
[1] = target: T1, Gvp36 fused at its C-terminus with the VN or VC part of Venus YFP (S. cerevisiae) (UniProt P40531); assay: split reporter; BiFC with VN and VC parts of Venus YFP in living diploid yeast cells in early exponential growth, 30 °C, whole cells at various stages of the cell cycle (wild-type and rvs161Δ cells)
T1 sequence: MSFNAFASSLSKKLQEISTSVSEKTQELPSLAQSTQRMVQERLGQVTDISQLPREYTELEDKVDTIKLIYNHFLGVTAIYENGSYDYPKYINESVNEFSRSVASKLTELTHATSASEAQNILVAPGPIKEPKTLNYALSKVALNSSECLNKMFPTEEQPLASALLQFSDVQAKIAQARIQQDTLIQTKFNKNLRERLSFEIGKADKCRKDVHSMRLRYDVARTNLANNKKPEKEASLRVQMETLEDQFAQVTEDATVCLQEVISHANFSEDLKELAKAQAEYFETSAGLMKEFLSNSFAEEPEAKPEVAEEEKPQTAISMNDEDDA

[2] = target: Rvs167 fused at its C-terminus with the VN or VC part of Venus YFP (S. cerevisiae) (UniProt P39743); assay: as above
[3] = target: T2, Rvs161 fused at its C-terminus with the VN or VC part of Venus YFP (S. cerevisiae) (UniProt P25343); assay: as above
T2 sequence: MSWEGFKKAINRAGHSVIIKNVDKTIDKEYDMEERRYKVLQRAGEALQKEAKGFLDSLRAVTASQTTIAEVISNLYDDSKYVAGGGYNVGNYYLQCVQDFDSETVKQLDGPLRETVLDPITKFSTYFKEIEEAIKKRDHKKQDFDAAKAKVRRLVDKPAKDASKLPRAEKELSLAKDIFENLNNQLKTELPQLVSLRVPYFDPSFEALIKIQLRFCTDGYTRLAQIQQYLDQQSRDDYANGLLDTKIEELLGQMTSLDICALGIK

[4] = target: T1, Gvp36 fused at its C-terminus with the VN or VC part of Venus YFP (S. cerevisiae); assay: split reporter; BiFC in living diploid yeast cells, scored only at the tip of small buds (ratio of bud width to bud neck width ≤ 1)
[5] = target: T2, Rvs161 fused at its C-terminus with the VN or VC part of Venus YFP (S. cerevisiae); assay: as above
[6] = target: T3, Gyl1-HA (S. cerevisiae) (UniProt Q04322); assay: co-IP; total extracts of log-phase yeast cells co-expressing the tagged proteins (rvs167Δrvs161Δ, rvs167Δgvp36Δ, rvs161Δgvp36Δ, rvs167Δ, rvs167Δrvs161Δgvp36Δ or diploid cells); lysis buffer 20 mM Tris-HCl pH 7.5, 100 mM NaCl, 1 mM EDTA, 0.5% Triton X-100; anti-Myc, anti-HA, anti-GFP or anti-VSV antibody and protein G-agarose, 4 °C; washes up to 300 mM NaCl
T3 sequence: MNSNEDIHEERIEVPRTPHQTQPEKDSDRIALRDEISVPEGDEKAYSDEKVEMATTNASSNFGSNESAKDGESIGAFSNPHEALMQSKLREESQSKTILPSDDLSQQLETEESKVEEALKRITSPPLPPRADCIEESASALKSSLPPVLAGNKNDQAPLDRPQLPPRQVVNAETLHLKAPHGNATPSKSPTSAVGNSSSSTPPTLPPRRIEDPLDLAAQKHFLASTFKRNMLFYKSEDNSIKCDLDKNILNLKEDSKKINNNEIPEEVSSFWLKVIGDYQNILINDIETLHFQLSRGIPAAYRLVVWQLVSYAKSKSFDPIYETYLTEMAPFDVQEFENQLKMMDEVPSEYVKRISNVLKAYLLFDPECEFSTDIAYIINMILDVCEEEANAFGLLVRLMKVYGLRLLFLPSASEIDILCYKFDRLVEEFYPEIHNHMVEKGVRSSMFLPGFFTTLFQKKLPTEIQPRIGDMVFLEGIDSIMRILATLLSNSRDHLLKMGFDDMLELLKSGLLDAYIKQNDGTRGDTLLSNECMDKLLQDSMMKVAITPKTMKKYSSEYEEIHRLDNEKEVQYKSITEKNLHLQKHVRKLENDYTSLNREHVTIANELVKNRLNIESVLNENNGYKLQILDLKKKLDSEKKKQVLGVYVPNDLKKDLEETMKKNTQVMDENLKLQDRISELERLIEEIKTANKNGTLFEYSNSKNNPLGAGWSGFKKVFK

[7] = target: T4, Gyp5-Myc (S. cerevisiae) (UniProt Q12344); assay: as above
T4 sequence: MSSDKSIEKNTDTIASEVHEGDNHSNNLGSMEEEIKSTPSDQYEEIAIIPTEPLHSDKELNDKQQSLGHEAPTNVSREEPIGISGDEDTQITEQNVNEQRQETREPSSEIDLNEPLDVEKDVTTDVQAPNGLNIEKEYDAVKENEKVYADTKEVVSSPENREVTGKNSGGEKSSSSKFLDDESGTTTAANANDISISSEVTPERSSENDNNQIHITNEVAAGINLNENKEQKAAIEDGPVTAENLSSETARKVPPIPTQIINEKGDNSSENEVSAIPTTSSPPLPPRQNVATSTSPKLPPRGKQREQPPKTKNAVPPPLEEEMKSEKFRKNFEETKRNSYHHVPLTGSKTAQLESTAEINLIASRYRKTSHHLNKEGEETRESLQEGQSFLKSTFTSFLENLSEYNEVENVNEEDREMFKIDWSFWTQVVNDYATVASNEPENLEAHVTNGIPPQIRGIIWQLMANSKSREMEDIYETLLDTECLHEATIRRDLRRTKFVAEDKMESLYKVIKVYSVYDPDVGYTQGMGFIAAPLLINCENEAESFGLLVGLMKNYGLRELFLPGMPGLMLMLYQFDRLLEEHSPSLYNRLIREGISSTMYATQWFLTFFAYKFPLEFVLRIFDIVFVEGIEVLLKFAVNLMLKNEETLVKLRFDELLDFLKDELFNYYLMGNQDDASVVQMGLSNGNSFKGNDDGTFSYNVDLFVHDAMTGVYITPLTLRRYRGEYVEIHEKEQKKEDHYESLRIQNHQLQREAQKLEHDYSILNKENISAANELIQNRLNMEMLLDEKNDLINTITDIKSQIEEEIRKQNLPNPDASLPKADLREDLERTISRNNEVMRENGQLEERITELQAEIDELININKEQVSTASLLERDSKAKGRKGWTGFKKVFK

[8] = target: T5, Gyp5-VN (S. cerevisiae) (UniProt Q12344); assay: split reporter; BiFC with VN and VC parts of Venus YFP in living diploid yeast cells in early exponential growth, 30 °C, whole cells at various stages of the cell cycle (wild-type and rvs161Δ cells)
T5 sequence: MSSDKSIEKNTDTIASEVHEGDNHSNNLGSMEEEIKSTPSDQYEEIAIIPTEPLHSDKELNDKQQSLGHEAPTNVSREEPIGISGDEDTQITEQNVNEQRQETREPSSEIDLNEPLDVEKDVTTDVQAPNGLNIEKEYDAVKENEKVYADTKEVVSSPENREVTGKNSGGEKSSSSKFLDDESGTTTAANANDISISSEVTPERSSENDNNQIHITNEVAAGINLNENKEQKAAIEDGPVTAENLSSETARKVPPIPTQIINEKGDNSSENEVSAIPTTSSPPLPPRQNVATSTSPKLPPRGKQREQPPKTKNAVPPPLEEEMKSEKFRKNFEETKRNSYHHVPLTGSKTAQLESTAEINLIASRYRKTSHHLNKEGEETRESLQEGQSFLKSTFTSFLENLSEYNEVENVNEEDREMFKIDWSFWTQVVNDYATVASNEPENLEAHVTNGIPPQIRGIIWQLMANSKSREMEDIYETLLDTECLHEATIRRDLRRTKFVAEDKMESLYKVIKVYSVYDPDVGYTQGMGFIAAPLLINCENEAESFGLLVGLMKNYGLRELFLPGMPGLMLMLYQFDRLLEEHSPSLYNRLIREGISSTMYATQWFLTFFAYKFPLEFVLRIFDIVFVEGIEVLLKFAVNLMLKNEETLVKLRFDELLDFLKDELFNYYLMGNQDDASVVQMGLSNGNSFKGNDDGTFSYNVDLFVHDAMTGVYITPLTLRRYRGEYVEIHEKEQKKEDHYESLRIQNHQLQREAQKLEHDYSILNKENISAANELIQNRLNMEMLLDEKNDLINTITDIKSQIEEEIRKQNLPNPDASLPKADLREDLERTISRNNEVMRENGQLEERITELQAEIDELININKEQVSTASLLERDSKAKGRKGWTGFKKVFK

[9] = target: T5, Gyp5-VN (S. cerevisiae); assay: split reporter; BiFC in living diploid yeast cells, scored only at the tip of small buds (ratio of bud width to bud neck width ≤ 1)
[10] = target: T6, VSV-Rvs161 (S. cerevisiae) (UniProt P25343); assay: co-IP; total extracts of log-phase yeast cells co-expressing the tagged proteins (rvs167Δrvs161Δ, rvs167Δgvp36Δ, rvs161Δgvp36Δ, rvs167Δ, rvs167Δrvs161Δgvp36Δ or diploid cells); lysis buffer 20 mM Tris-HCl pH 7.5, 100 mM NaCl, 1 mM EDTA, 0.5% Triton X-100; anti-Myc, anti-HA, anti-GFP or anti-VSV antibody and protein G-agarose, 4 °C; washes up to 300 mM NaCl
T6 sequence: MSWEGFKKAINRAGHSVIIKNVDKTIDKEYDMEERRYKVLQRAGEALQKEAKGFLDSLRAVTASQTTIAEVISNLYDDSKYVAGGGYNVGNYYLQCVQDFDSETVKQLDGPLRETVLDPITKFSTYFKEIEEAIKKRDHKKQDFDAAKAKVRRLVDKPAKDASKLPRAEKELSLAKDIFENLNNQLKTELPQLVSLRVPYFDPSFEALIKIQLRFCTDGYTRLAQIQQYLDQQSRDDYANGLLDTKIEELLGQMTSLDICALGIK

Molecule: VSV-Rvs167 (from UniProt P39743 1-482)
binding [6]: binds | binding [7]: binds

Molecule: endo-β1,3-glucanase Bgl2 (BiFC fusion, negative control) (from UniProt P15703 24-313)
binding [2]: no binding | binding [3]: no binding

B2: Gyp5-Myc (protein, UniProt Q12344 1-894)
chain: MSSDKSIEKNTDTIASEVHEGDNHSNNLGSMEEEIKSTPSDQYEEIAIIPTEPLHSDKELNDKQQSLGHEAPTNVSREEPIGISGDEDTQITEQNVNEQRQETREPSSEIDLNEPLDVEKDVTTDVQAPNGLNIEKEYDAVKENEKVYADTKEVVSSPENREVTGKNSGGEKSSSSKFLDDESGTTTAANANDISISSEVTPERSSENDNNQIHITNEVAAGINLNENKEQKAAIEDGPVTAENLSSETARKVPPIPTQIINEKGDNSSENEVSAIPTTSSPPLPPRQNVATSTSPKLPPRGKQREQPPKTKNAVPPPLEEEMKSEKFRKNFEETKRNSYHHVPLTGSKTAQLESTAEINLIASRYRKTSHHLNKEGEETRESLQEGQSFLKSTFTSFLENLSEYNEVENVNEEDREMFKIDWSFWTQVVNDYATVASNEPENLEAHVTNGIPPQIRGIIWQLMANSKSREMEDIYETLLDTECLHEATIRRDLRRTKFVAEDKMESLYKVIKVYSVYDPDVGYTQGMGFIAAPLLINCENEAESFGLLVGLMKNYGLRELFLPGMPGLMLMLYQFDRLLEEHSPSLYNRLIREGISSTMYATQWFLTFFAYKFPLEFVLRIFDIVFVEGIEVLLKFAVNLMLKNEETLVKLRFDELLDFLKDELFNYYLMGNQDDASVVQMGLSNGNSFKGNDDGTFSYNVDLFVHDAMTGVYITPLTLRRYRGEYVEIHEKEQKKEDHYESLRIQNHQLQREAQKLEHDYSILNKENISAANELIQNRLNMEMLLDEKNDLINTITDIKSQIEEEIRKQNLPNPDASLPKADLREDLERTISRNNEVMRENGQLEERITELQAEIDELININKEQVSTASLLERDSKAKGRKGWTGFKKVFK
binding [10]: binds

Further lines, results first:

binding [1]: binds | binding [2]: binds | binding [3]: binds | binding [4]: binds | binding [5]: binds
Molecule: Rvs167 fused at its C-terminus with the VN or VC part of Venus YFP (from UniProt P39743 1-482)

binding [2]: no binding | binding [3]: no binding
Molecule: nucleoporin Nic96 (BiFC fusion, negative control) (from UniProt P34077 1-839)

binding [1]: binds | binding [8]: binds | binding [9]: binds weakly
B1: Rvs161 fused at its C-terminus with the VN or VC part of Venus YFP (protein, UniProt P25343 1-265)
chain: MSWEGFKKAINRAGHSVIIKNVDKTIDKEYDMEERRYKVLQRAGEALQKEAKGFLDSLRAVTASQTTIAEVISNLYDDSKYVAGGGYNVGNYYLQCVQDFDSETVKQLDGPLRETVLDPITKFSTYFKEIEEAIKKRDHKKQDFDAAKAKVRRLVDKPAKDASKLPRAEKELSLAKDIFENLNNQLKTELPQLVSLRVPYFDPSFEALIKIQLRFCTDGYTRLAQIQQYLDQQSRDDYANGLLDTKIEELLGQMTSLDICALGIK

binding [8]: binds | binding [9]: binds weakly
B3: Gvp36 fused at its C-terminus with the VN or VC part of Venus YFP (protein, UniProt P40531 1-326)
chain: MSFNAFASSLSKKLQEISTSVSEKTQELPSLAQSTQRMVQERLGQVTDISQLPREYTELEDKVDTIKLIYNHFLGVTAIYENGSYDYPKYINESVNEFSRSVASKLTELTHATSASEAQNILVAPGPIKEPKTLNYALSKVALNSSECLNKMFPTEEQPLASALLQFSDVQAKIAQARIQQDTLIQTKFNKNLRERLSFEIGKADKCRKDVHSMRLRYDVARTNLANNKKPEKEASLRVQMETLEDQFAQVTEDATVCLQEVISHANFSEDLKELAKAQAEYFETSAGLMKEFLSNSFAEEPEAKPEVAEEEKPQTAISMNDEDDA
